Measurements reported in paper PMC8917357.

Experiments:
[1] = target: T1, Ada2b-PA (Drosophila melanogaster) (UniProt Q8I8V0); assay: co-IP; subunits expressed in Sf21 cells using Baculovirus; His-FLAG-Ada2b-PA with a single other subunit, tested for direct interaction; western blots with anti-Gcn5, anti-Ada3, anti-Sgf29, anti-FLAG
T1 sequence: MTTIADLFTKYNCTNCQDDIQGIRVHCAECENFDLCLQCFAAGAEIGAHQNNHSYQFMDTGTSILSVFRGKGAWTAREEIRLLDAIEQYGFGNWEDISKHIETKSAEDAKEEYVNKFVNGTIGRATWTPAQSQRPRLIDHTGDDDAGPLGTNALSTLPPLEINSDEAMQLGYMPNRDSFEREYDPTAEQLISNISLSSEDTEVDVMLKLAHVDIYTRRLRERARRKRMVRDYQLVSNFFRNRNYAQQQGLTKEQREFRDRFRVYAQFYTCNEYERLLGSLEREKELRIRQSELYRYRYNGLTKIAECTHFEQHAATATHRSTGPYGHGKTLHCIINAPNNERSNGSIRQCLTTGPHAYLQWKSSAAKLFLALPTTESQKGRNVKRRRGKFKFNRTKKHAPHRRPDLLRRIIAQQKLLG

[2] = target: Ada3 (Drosophila melanogaster); assay: co-IP; subunits expressed in Sf21 cells using Baculovirus; His-FLAG-Ada2b-PA with Sgf29 in the presence of Ada3; western blots with anti-Gcn5, anti-Ada3, anti-Sgf29, anti-FLAG

binding [1]: binds
Molecule: Ada3 (Drosophila melanogaster)

binding [2]: binds
B1: Sgf29 (protein, UniProt Q9W2I4 1-289)
chain: MPLTAESAAQQIQDRLKDIQQNIHNVDEERRRAENSIASLVRSLHATNQKVKPLLKASLTEAAQEEATIRAALAKIHEIRSIRNERRIQARNAGNKEAIRRGALMKMVQLSAQTLPLFVGKLGERAPALCGAIPAEGNYVAKVGDNVAALAKGIDEEENWILAEVVQFLHRQNKYDVIDIDEEQKDRHVLSKRKVIPLPLMRANPETDGHALFPKDTVVMALYPQTTCFYKAIVHRLPQTATEDYEVLFEDSSYTNGYAEPLPVAQRYVIAYRPTKKGAGSGSGNLSSA

No constants are given. Whether binding was seen depends on the method and setting. Binding seen in cells or lysates may run through a third protein. A result given as binding can be weak or reduced; the word gives no strength. Each block holds one molecule with its values, some of them ahead of it.
